Results deposited as PubChem BioAssay AID1259405 (NCATS, 2018)
Purpose: 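Silenced genes that increase secreted GFP made by CHO cells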 (primary screen). System: Chinese hamster CHO-K1 ovary cells with stable secreted eGFP expression. Reagent: single siRNA against mouse genes, 0.8 pmol siRNA per well (2 µl of 400 nM stock). Timing: 3 days. Measurement: 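Percent of the per-plate non-targeting control median for intracellular GFP per well by laser scanning cytometry and for cell viability by ATP luminescence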. Scale: GFP, % of control: higher = more GFP per well, higher productivity; viability (ATP), % of control: higher = more viable cells (more ATP). Call rule: 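a knock-down is called active if GFP reaches 120% or more of non-targeting control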.
The whole screen tested about 50,000 reagents; shown is an unselected part. Over the whole deposit, about 4,000 (8%) are marked active. 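Mouse siRNA library applied to hamster cells; one well for each siRNA.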 Reagents against one gene are numbered here.

Prrx1 (paired related homeobox 1) #1 showed GFP, % of control 94.4; viability (ATP), % of control 60.5; inactive.
With knock-down of Prrx1 (paired related homeobox 1) #2 the results were GFP, % of control 107; viability (ATP), % of control 70.5; inactive.
Against Prrx1 (paired related homeobox 1) #3, the values are GFP, % of control 111; viability (ATP), % of control 92.3; inactive.
Cacng6 (calcium channel, voltage-dependent, gamma subunit 6) #1 showed GFP, % of control 78.3; viability (ATP), % of control 72.5; inactive.
Depletion of Cacng6 (calcium channel, voltage-dependent, gamma subunit 6) #2 resulted in: GFP, % of control 71.2; viability (ATP), % of control 63.2; inactive.
With knock-down of Cacng6 (calcium channel, voltage-dependent, gamma subunit 6) #3, the record shows GFP, % of control 184; viability (ATP), % of control 133; active.
Depletion of Inhbb (inhibin beta-B) #1 resulted in: GFP, % of control 54.5; viability (ATP), % of control 45.9; inactive.
Against Inhbb (inhibin beta-B) #2, the entry reads GFP, % of control 58.8; viability (ATP), % of control 64.7; inactive.
Silencing of Inhbb (inhibin beta-B) #3 came out at: GFP, % of control 74.3; viability (ATP), % of control 72.3; inactive.
For Slc25a17 #1 the deposit lists GFP, % of control 12.4; viability (ATP), % of control 14.7; inactive.
With knock-down of Slc25a17 #2, the record shows GFP, % of control 65; viability (ATP), % of control 88.6; inactive.
Silencing of Slc25a17 #3 came out at: GFP, % of control 154; viability (ATP), % of control 92.6; active.
For Slc25a17 #4, the values are GFP, % of control 80.6; viability (ATP), % of control 104; inactive.
Silencing of Slc25a17 #5 gave: GFP, % of control 76.3; viability (ATP), % of control 95.6; inactive.
Depletion of Slc25a17 #6 gave: GFP, % of control 81.4; viability (ATP), % of control 64.7; inactive.
Silencing of Ppbp (pro-platelet basic protein) #1 resulted in: GFP, % of control 58; viability (ATP), % of control 75.9; inactive.
Against Ppbp (pro-platelet basic protein) #2, the values are GFP, % of control 66.8; viability (ATP), % of control 52.4; inactive.
Ppbp (pro-platelet basic protein) #3 gave GFP, % of control 69.3; viability (ATP), % of control 65.3; inactive.

Single entries from the list.
Value of Slc25a17 #2 under “viability (ATP), % of control”: 88.6
For “viability (ATP), % of control”, Slc25a17 #5 shows 95.6
For “viability (ATP), % of control”, Ppbp (pro-platelet basic protein) #3 has 65.3
